Measurements reported in US9920357B2, “Systems and methods for identifying cosmetic agents for hair/scalp care compositions” (The Procter & Gamble Company, priority 2012, dated 2018).
At least one structure is not confirmed: it was looked up by name or label, or the drawing left a doubt.

System: hair count
Experiment: Clinical studies of hair count
Type: in vivo

For Nc1cc(N2CCCCC2)nc(N)[n+]1[O-] [Minoxidil], the hair count was “significant increase in hair count”.
